In PubChem BioAssay (NCATS):
These results got no clear call from the source, so the numbers are uncertain. Unless noted, calls come from the whole dose curve; as a rule, active = well fitted curve in the direction sought with a large enough effect; inconclusive = small, poorly fitted or top-dose-only effect, or another doubt; inactive = no such curve, though single readings can be large; an effect the other way counts as inactive or inconclusive.

Chains of the proteins cited; added tags and fusions are not shown.
UniProt Q14994, whole entry: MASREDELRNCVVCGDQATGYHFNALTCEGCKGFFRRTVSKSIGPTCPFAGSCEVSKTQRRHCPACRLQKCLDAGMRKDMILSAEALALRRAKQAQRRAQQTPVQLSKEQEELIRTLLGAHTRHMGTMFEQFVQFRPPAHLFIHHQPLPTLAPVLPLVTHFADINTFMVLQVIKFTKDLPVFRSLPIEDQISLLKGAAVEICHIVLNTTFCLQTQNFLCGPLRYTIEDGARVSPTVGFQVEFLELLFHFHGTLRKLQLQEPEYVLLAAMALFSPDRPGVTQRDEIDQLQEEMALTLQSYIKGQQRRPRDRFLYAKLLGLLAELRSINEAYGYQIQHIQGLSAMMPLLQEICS
UniProt P11712, whole entry: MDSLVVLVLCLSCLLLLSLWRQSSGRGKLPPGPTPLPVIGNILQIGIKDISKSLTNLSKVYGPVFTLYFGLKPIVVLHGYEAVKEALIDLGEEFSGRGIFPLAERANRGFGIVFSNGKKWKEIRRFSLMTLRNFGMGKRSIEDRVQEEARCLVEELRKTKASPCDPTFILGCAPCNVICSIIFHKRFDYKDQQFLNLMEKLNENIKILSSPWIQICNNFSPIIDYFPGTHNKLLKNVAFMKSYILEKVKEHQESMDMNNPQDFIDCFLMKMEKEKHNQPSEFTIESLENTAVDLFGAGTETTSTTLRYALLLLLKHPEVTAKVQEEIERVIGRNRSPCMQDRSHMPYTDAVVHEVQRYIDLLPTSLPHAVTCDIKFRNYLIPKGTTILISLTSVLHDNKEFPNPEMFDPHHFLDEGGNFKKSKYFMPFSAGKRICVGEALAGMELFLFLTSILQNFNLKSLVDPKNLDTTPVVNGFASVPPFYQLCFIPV
UniProt O75469, whole entry: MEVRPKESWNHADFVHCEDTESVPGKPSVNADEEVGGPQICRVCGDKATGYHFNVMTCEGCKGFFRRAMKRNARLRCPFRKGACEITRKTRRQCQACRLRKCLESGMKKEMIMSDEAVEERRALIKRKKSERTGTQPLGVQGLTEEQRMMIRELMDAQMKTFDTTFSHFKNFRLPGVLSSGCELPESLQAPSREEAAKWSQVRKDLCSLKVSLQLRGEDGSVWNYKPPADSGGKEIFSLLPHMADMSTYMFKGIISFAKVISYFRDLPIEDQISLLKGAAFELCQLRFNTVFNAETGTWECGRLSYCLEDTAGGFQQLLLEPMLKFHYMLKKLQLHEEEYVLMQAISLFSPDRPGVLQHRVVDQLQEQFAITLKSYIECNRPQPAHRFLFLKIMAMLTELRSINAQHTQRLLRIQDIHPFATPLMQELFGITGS
UniProt O15648, whole entry: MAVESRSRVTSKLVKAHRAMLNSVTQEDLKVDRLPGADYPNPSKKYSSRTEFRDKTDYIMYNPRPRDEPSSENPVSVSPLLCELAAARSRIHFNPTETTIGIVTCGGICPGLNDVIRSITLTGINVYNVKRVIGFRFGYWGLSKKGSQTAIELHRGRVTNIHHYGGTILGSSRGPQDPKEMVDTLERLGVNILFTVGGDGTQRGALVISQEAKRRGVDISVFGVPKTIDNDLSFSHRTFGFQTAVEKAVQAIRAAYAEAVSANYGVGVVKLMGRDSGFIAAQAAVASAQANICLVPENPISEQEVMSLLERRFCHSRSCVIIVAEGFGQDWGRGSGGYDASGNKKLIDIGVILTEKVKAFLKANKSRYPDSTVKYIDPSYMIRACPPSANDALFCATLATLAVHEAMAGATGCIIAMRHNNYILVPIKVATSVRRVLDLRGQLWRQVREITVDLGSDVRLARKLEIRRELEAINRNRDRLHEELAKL
UniProt O89049, whole entry: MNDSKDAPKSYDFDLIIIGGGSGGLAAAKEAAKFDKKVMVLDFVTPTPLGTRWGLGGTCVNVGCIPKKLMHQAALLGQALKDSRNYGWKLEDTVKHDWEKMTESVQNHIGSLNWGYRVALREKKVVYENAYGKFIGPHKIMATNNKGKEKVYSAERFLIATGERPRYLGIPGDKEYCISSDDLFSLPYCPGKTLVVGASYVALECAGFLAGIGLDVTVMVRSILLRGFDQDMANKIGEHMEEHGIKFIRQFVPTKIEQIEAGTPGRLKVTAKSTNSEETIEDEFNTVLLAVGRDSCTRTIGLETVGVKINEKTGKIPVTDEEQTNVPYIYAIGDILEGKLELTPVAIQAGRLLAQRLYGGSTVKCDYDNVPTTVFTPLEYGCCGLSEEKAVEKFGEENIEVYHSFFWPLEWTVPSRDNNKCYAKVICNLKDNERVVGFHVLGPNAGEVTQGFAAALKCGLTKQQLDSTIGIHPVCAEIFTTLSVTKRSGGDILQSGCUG
UniProt P83916, whole entry: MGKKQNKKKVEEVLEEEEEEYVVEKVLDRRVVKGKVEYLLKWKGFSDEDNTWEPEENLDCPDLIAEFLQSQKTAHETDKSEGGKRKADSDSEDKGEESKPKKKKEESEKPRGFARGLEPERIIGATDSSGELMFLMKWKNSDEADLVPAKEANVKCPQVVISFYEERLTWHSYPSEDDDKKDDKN

What was measured:
[1] = qHTS of pediatric cancer cell lines to identify multiple opportunities for drug repurposing: Primary screen for BT-37 cells (AID 1347094); details: BT-37 viability, CellTiter-Glo luminescence, 48 h; note: potency is the fitted concentration of half-maximal effect
Outline: (§1)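 CRCs from 8- or 11-point titrations (lowest final 0.59 nM NPC, 0.78 nM MIPE). Cell viability: CellTiter-Glo after 48 h incubation, 15 min room-temperature development, luminescence imaging.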

[2] = qHTS of pediatric cancer cell lines to identify multiple opportunities for drug repurposing: Primary screen for NB-EBc1 cells (AID 1347095); details: NB-EBc1 neuroblastoma viability, CellTiter-Glo luminescence, 48 h; note: potency is the fitted concentration of half-maximal effect
[3] = qHTS of pediatric cancer cell lines to identify multiple opportunities for drug repurposing: Primary screen for RD cells (AID 1347104); details: RD rhabdomyosarcoma viability, CellTiter-Glo luminescence, 48 h; note: potency is the fitted concentration of half-maximal effect; nearly all actives have a fitted effect of over 55% in size
Outline: as §1

[4] = qHTS of pediatric cancer cell lines to identify multiple opportunities for drug repurposing: Primary screen for Rh41 cells (AID 1347108); details: Rh41 rhabdomyosarcoma viability, CellTiter-Glo luminescence, 48 h; note: potency is the fitted concentration of half-maximal effect; nearly all actives have a fitted effect of over 70% in size
Outline: as §1

[5] = Confirmatory qHTS for small molecule stabilizers of the endoplasmic reticulum resident proteome: Secreted ER Calcium Modulated Protein (SERCaMP) assay (AID 1508628); details: SERCaMP secreted luciferase ER calcium/proteostasis reporter; note: potency is the fitted concentration of half-maximal effect; nearly all actives have a fitted effect of over 40% in size
Outline: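 GLuc-SERCaMP-expressing SH-SY5Y cells, pretreated 16 h with compound, are challenged with thapsigargin to empty ER calcium stores; after 4 h, coelenterazine is added directly to the medium and luminescence is imaged.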

[6] = Primary qHTS for small molecule stabilizers of the endoplasmic reticulum resident proteome: Secreted ER Calcium Modulated Protein (SERCaMP) assay (AID 1508630); details: SH-SY5Y GLuc-SERCaMP (Gaussia luciferase released on ER calcium loss) secretion, thapsigargin, luminescence; note: potency is the fitted concentration of half-maximal effect
Outline: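 The SH-SY5Y reporter protocol was run at 3 concentrations up to 38.3 uM (primary) or 11 concentrations (follow-up): 16 h compound, 100 nM thapsigargin for 4 h, then extracellular luciferase luminescence.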

[7] = target: Nuclear receptor subfamily 1 group I member 3 (Homo sapiens) (UniProt Q14994); experiment: Primary qHTS for agonist of constitutive androstane receptor (CAR) against the NCATS DSHEA and TCM libraries (AID 1794839); details: CAR agonist reporter cells, qHTS luminescence; CAR antagonist co-added at 0.75 µM; note: potency is the fitted concentration of half-maximal effect
Outline: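 HepG2-CYP2B6-hCAR cells (2,500/well) were attached for 5 h, then treated for 24 h at 37 °C with compounds plus 0.75 µM PK11195. Luciferase luminescence (ONE-Glo) was read, with CellTiter-Fluor viability (Ex/Em 405/540 nm).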

[8] = target: Cytochrome P450 2C9 (Homo sapiens) (UniProt P11712); experiment: qHTS for inhibitors of CYP2C9 against the NCATS DSHEA and TCM libraries (AID 1919973); details: recombinant CYP2C9 enzyme activity, luminescence; note: potency is the fitted concentration of half-maximal effect
Outline: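 Isoform-specific enzyme and substrate levels; enzyme-free wells as background. Reaction: 1x NADPH regenerating system, 30-45 min, room temperature, shielded from light; luminescent detection reagent added, 30 min.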

[9] = target: Nuclear receptor subfamily 1 group I member 2 (Homo sapiens) (UniProt O75469); experiment: Dual reporter qHTS for agonist of Pregnane X Receptor (hPXR) against the NCATS DSHEA and TCM libraries: Luminescence readout (AID 1920059); details: hPXR dual reporter cells, luciferase luminescence agonist; note: potency is the fitted concentration of half-maximal effect
Outline: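 hPXR-LucHepG2 cells in phenol red-free DMEM with 5% charcoal-stripped FBS, 2000 cells/well, attached 5 h, then exposed 24 h at 37C to compounds; rifampicin as positive agonist control (2.8 nM–92 uM). Luciferase luminescence read.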

[10] = Dual reporter qHTS for antagonist of Pregnane X Receptor (hPXR) against the NCATS DSHEA and TCM libraries: Fluorescence Readout (AID 1920061); details: PXR dual reporter cells, antagonist mode
Outline: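 HepG2 hPXR-Luc, 2000 cells/well, charcoal-stripped FBS medium; 5 h attach; RIF 2 uM final; 24 h 37C/5% CO2; CellTiter-Fluor 1 h, fluor 405/540; ONE-Glo 30 min RT, lum.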

OV90 = experiment: Primary qHTS to identify gynecologic anti-cancer compounds using libraries of approved drugs and bioactive compounds (AID 1345084); details: Gynecologic cancer cell panel viability, ATPlite luminescence, 48 h; note: potency is the fitted concentration of half-maximal effect; nearly all actives have a fitted effect of over 55% in size
Outline: (§2)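 Cytotoxicity screen measuring ATP content by luciferase luminescence. Each compound is applied at five concentrations for 48 h at 37 C with 5% CO2.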

[11] = Drug repurposing screens with cells derived from glioblastoma tumor samples (AID 1345199); details: GBM patient neurospheres viability, ATP luminescence, 48 h; tumour line A; note: potency is the fitted concentration of half-maximal effect; nearly all actives have a fitted effect of over 40% in size
Outline: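 Primary testing used CD133+ neurospheres from four GBM patients, seven concentrations, 48 h exposure and ATP-based viability; confirmation added three slower-growing patient lines.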

[12] = NFAT Signaling Pathway (AID 444; active = well fitted curve in either direction with a large enough effect, not every such curve was filed as active; inconclusive = small, poorly fitted or top-dose-only effect, or another doubt;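 note: carbachol stimulus at about its EC50 of 1 µM final; % is set by controls: 0 for no effect and ±100 for the full control effect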); details: Jurkat NFAT-bla M1, carbachol, beta-lactamase ratio, 5 h; at 38 µM (top of the series) unless noted
Outline: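 Jurkat cells carrying an NFAT-driven β-lactamase reporter and co-transfected muscarinic M1 receptor were treated with compound plus carbachol (1 uM final, an EC50 level) for 5 h at 37 °C. CCF4 loading followed for 1 h at RT; 460/530 nm ratio gave %activity.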

[13] = qHTS Assay for Identification of Small Molecule Antagonists for NFkB Signaling Pathway (AID 895; active = well fitted inhibition curve with a large enough effect in the signal ratio, with a control signal flat, not every such curve was filed as active; inconclusive = small, poorly fitted or top-dose-only effect, or effect the other way, or a change in a side signal; the % refers to the signal ratio; note: potency is the fitted concentration of half-maximal effect); details: NFkB beta-lactamase reporter cells, FRET ratio 460/530, stimulated with 10 pM TNF alpha; activity change, negative = inhibition: at 38.3 µM (top of the series)
[14] = qHTS Assay for Lipid Storage Modulators (AID 1519; calls by dose curve; note: % is set by controls: 0 for no effect and ±100 for the full control effect); details: Drosophila S3 cells, BODIPY lipid droplet/cell ratio, laser cytometry, cells loaded with oleic acid; at 57.5 µM (top of the series)
[15] = qHTS for differential inhibitors of proliferation of Plasmodium falciparum line 7G8 (AID 1815); details: Plasmodium falciparum 7G8 proliferation inhibition;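 note: potency is the fitted concentration of half-maximal effect; parasite growth measured after three days of incubation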
[16] = qHTS for differential inhibitors of proliferation of Plasmodium falciparum line 3D7 (AID 1876); note: potency is the fitted concentration of half-maximal effect; details: P. falciparum 3D7 proliferation inhibition
[17] = target: ATP-dependent 6-phosphofructokinase (Trypanosoma brucei brucei) (UniProt O15648); experiment: qHTS Validation Assay to Find Inhibitors of T. brucei phosphofructokinase (AID 485368); note: potency is the fitted concentration of half-maximal effect; details: T. brucei PFK enzyme assay, qHTS 7-point titration
[18] = target: Thioredoxin reductase 1, cytoplasmic (Rattus norvegicus) (UniProt O89049); experiment: qHTS Assay for Inhibitors of Mammalian Selenoprotein Thioredoxin Reductase 1 (TrxR1) (AID 488773); details: purified TrxR1 enzyme activity, inhibition; note: potency is the fitted concentration of half-maximal effect; nearly all actives have a fitted effect of over 40% in size
Outline: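 Inhibition is scored from the loss of NADPH fluorescence between first and last reads of an 8-min kinetic run. Selenite (400 uM) was the substrate, added after 15 min compound preincubation at room temperature.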

[19] = target: Chromobox protein homolog 1 (Homo sapiens) (UniProt P83916); experiment: qHTS Validation Assay for Inhibitors of HP1-beta Chromodomain Interactions with Methylated Histone Tails (AID 488953); details: HP1-beta chromodomain / methylated histone peptide binding assay; note: potency is the fitted concentration of half-maximal effect; nearly all actives have a fitted effect of over 50% in size
[20] = Nrf2 qHTS screen for inhibitors: Validation (AID 493153; active = well fitted inhibition curve with a large enough effect in the main read-out, with a control signal flat, not every such curve was filed as active; inconclusive = small, poorly fitted or top-dose-only effect, or effect the other way, or a change in a side signal; inactive = no such curve, though single readings can be large or run the other way; note: potency is the fitted concentration of half-maximal effect); details: A549 ARE-Fluc reporter, luciferase luminescence, 18-24 h
Outline: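 In this counterscreened reporter format, each well gives two signals: CellTiter-Fluor fluorescence for cytotoxicity and ARE-luciferase luminescence for Nrf2 function. A549 ARE_Fluc cells in 5% FBS OPTI-MEM were exposed to compound titrations for 18-24 h.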

[21] = Primary qHTS for inhibitors of La Crosse Virus (LACV) - induced cell death in SH-SY5Y cells (AID 1508616); details: SH-SY5Y LACV cytopathicity rescue, ATP luminescence, 6 d; note: potency is the fitted concentration of half-maximal effect
Outline: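 Screening measures cell viability in LACV-infected SH-SY5Y cultures. Compound was added before virus (0.01 MOI), and ATP was detected by luminescence 6 days later.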

[22] = Counterscreen qHTS for small molecule stabilizers of the endoplasmic reticulum resident proteome: GLuc-NoTag assay (AID 1508627); details: Gaussia luciferase NoTag secretion counterscreen, luminescence; thapsigargin 100 nM for final 4 h; note: potency is the fitted concentration of half-maximal effect
Outline: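 Secreted GLuc lacking the SERCaMP modification is measured in SH-SY5Y cells exposed to compound for 19 h and then to thapsigargin (100 nM, 4 h) to deplete ER calcium; hits retested at 11 concentrations, up to 76.6 uM.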

[23] = qHTS assay for measurement of the activity of small molecule inhibitors on Zika virus induced Caspase-3 activity in human iPSC derived neural progenitor cells (hNPCs) (AID 1224857); details: hNPCs ZIKV-induced caspase-3/7, Caspase-Glo luminescence, 6 h; note: potency is the fitted concentration of half-maximal effect; nearly all actives have a fitted effect of over 65% in size
Outline: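 Values are percent inhibition of virus-induced caspase-3/7 signal, scaled between uninfected cells and ZIKV-infected cells. Infection used 2 FFU/cell for 6 h after 1 h compound exposure.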

[24] = P-glycoprotein substrates identified in KB-8-5-11 adenocarcinoma cell line, qHTS therapeutic library screen (AID 1346987); details: KB-8-5-11 (P-gp overexpressing) viability, CellTiter-Glo, 72 h; note: potency is the fitted concentration of half-maximal effect; nearly all actives have a fitted effect of over 65% in size
Outline: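 Human cervical adenocarcinoma KB-8-5-11 cells, selected in colchicine to over-express P-gp and assayed without it, were exposed for 72 h to titrated compounds. An ATP-based luminescent viability signal gave AC50.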

[25] = target: Nucleoprotein (Lymphocytic choriomeningitis virus (strain Armstrong)) (UniProt P09992); experiment: qHTS for Inhibitors of the Functional Ribonucleoprotein Complex (vRNP) of Lymphocytic Choriomeningitis Arenaviruses (LCMV): LCMV Primary Screen - GLuc reporter signal (AID 1347086; calls by dose curve; note: potency is the fitted concentration of half-maximal effect; nearly all actives have a fitted effect of over 70% in size); details: LCMV minigenome vRNP cell assay, Gaussia luciferase reporter
[26] = tested on: Zika virus NS2B-NS3 protease (unlinked complex); experiment: Primary screen GU Rhodamine qHTS for Zika virus inhibitors: Unlinked NS2B-NS3 protease assay (AID 1347159); details: Recombinant ZIKV NS2B-NS3 protease, Rhodamine110 substrate fluorescence; note: potency is the fitted concentration of half-maximal effect; nearly all actives have a fitted effect of over 60% in size
Outline: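 Enzyme 25 nM in Tris-HCl pH 8.0 + 0.01% Tween 20; compounds up to 114 microM, 15 min RT dark; + Rhod110 substrate 1.5 microM; read t0 and 15 min; delta fluorescence → % inhibition → 4-parameter Hill fit.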

[27] = Primary qHTS to identify inhibitors of SARS-CoV-2 cell entry (AID 1645846; calls by dose curve; note: potency is the fitted concentration of half-maximal effect; nearly all actives have a fitted effect of over 45% in size); details: SARS-CoV-2 pseudovirus cell entry assay, luminescence
Outline: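 Luminescence readout (Bright-Glo luciferase) 48 h after pseudoparticle addition. HEK293-ACE2 cells, 1500/well; compound pre-incubation 1 h; Normalized to spike PP and bald PP.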

HEK293 = experiment: Cytotoxic Profiling of Annotated Libraries Using Quantitative High-Throughput Screening (AID 1296008); details: Five cell lines viability, CellTiter-Glo ATP luminescence, 48-72 h; note: potency is the fitted concentration of half-maximal effect; nearly all actives have a fitted effect of over 60% in size
Outline: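 Compounds were pin-transferred onto cells and incubated 48 or 72 hr at 37 degree Celsius, 95% humidity. CellTiter-Glo was added, plates sat 10 min at room temperature, then ATP-coupled luminescence was imaged as the viability read-out.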

Es-2 = experiment: Primary qHTS to identify gynecologic anti-cancer compounds using libraries of approved drugs and bioactive compounds (AID 1345084); details: Gynecologic cancer cell panel viability, ATPlite luminescence, 48 h; note: potency is the fitted concentration of half-maximal effect; nearly all actives have a fitted effect of over 55% in size
Outline: as §2

Hek293T = experiment: as above; details: Gynecologic cancer cell panel viability, ATPlite luminescence, 48 h, control line for the selectivity index
Outline: as §2

JEG-3 = experiment: as above; details: Gynecologic cancer cell panel viability, ATPlite luminescence, 48 h
Outline: as §2

C/C1=C2N=C(/C=C3N=C(/C(C)=C4\[N-][C@@](C)([C@@H]5N=C1[C@](C)(CCC(=O)NC[C@@H](C)OP(=O)([O-])O[C@H]1[C@@H](O)[C@@H](n6cnc7cc(C)c(C)cc76)O[C@@H]1CO)[C@H]5CC(N)=O)[C@@](C)(CC(N)=O)[C@@H]4CCC(N)=O)[C@@](C)(CC(N)=O)[C@@H]\3CCC(N)=O)C(C)(C)[C@@H]/2CCC(N)=O.[C-]#N.[Co+3]
inconclusive: Potency [1] 27.6 µM | Potency [2] 15 µM | Potency [3] 15 µM | Potency [4] 15 µM | Potency [5] 44.7 µM | Potency [6] 3.16 µM | Potency [7] 3.55 µM | Potency [8] 3.98 µM | Potency [9] 3.55 µM | Potency [10] 12.6 µM | Potency (OV90) 1.58 µM

CN(C)CCS
inconclusive: Potency [11] 20 µM

CN(CCCl)Cc1cc(Cl)c(NC2=NCCN2)c(Cl)c1
inconclusive: activity change, negative = inhibition [12] -41.5% | Potency [13] 11.2 µM | activity change, negative = inhibition [14] -1.28% | Potency [15] 12.6 µM | Potency [16] 10 µM | Potency [17] 15.1 µM | Potency [18] 18.9 µM | Potency [19] 50.1 µM | Potency [20] 23.1 µM | Potency [21] 1.78 µM | Potency [22] 1.41 µM | Potency [5] 3.55 µM | Potency [6] 10 µM

CCOP(=O)(CC)Oc1ccc([N+](=O)[O-])cc1 (stereo unspecified)
inconclusive: Potency [23] 12.6 µM | Potency [24] 23.1 µM | Potency [25] 44.7 µM | Potency [26] 89.1 µM | Potency [27] 31.6 µM | Potency (HEK293) 21.1 µM | Potency (Es-2) 35.5 µM | Potency (Hek293T) 35.5 µM | Potency (JEG-3) 39.8 µM | Potency (OV90) 17.8 µM | Potency [11] 35.5 µM
